Measured data: PubChem BioAssay AID743121 (NCATS, 2013)

Assay: 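Partners whose loss is lethal together with topoisomerase I blockade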 (primary screen)
Cells: MDA-MB-231 cells, a human breast cancer line
Reagents: single siRNA against human genes, 20 nM siRNA (0.8 pmol per well)
Duration: 120 h (drug added 48 h after transfection, read 72 h later)
Treatment: camptothecin 20 nM (about EC30) for 72 h; vehicle 0.1% DMSO in parallel plates
Measured: 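Cell viability by ATP luminescence (CellTiter-Glo) as % of non-targeting siRNA wells, and the log2 ratio of viability without drug over viability with camptothecin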
Reading the numbers: log2 vehicle/camptothecin viability: higher = stronger sensitisation to camptothecin
Active means: 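Each gene scored by redundant siRNA activity (RSA) over its individual siRNA ratios; a gene is called active at p < 0.001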
The deposit covers about 26,000 reagents; this is an unselected part. In the full data, 167 (0.63%) were called active. 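Calls are per gene from RSA p-values that are not deposited; an individual active-marked siRNA can sensitise only weakly.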 The numbers tell different reagents against one gene apart. Not all columns of the deposit are shown.

target gene	reagent	log2 vehicle/camptothecin viability	activity call
PAQR7 (progestin and adipoQ receptor family member 7)	1	-0.294	inactive
PAQR7 (progestin and adipoQ receptor family member 7)	2	-0.0352	inactive
PAQR7 (progestin and adipoQ receptor family member 7)	3	-0.2	inactive
PAQR7 (progestin and adipoQ receptor family member 7)	4	0.0266	inactive
FGL1 (fibrinogen like 1)	1	-0.00456	inactive
FGL1 (fibrinogen like 1)	2	-0.0253	inactive
FGL1 (fibrinogen like 1)	3	0.457	inactive
FGL1 (fibrinogen like 1)	4	-0.194	inactive
DTYMK (deoxythymidylate kinase)	1	-0.378	inactive
DTYMK (deoxythymidylate kinase)	2	-0.0517	inactive
DTYMK (deoxythymidylate kinase)	3	-0.55	inactive
DTYMK (deoxythymidylate kinase)	4	-0.12	inactive
PLA2G5 (phospholipase A2 group V)	1	-0.0499	inactive
PLA2G5 (phospholipase A2 group V)	2	-0.187	inactive
PLA2G5 (phospholipase A2 group V)	3	0.014	inactive
PLA2G5 (phospholipase A2 group V)	4	-0.523	inactive
TRPM8	1	-0.736	inactive
TRPM8	2	-0.145	inactive
TRPM8	3	-0.3	inactive
TRPM8	4	-0.255	inactive
RPS6KA5 (ribosomal protein S6 kinase A5)	1	-0.286	inactive
RPS6KA5 (ribosomal protein S6 kinase A5)	2	0.0401	inactive
RPS6KA5 (ribosomal protein S6 kinase A5)	3	-0.185	inactive
RPS6KA5 (ribosomal protein S6 kinase A5)	4	-0.493	inactive
ASB1 (ankyrin repeat and SOCS box containing 1)	1	-0.191	inactive
ASB1 (ankyrin repeat and SOCS box containing 1)	2	0.102	inactive
ASB1 (ankyrin repeat and SOCS box containing 1)	3	-0.176	inactive
ASB1 (ankyrin repeat and SOCS box containing 1)	4	-0.0598	inactive
CD163 (CD163 molecule)	1	-0.311	inactive
CD163 (CD163 molecule)	2	-0.48	inactive
CD163 (CD163 molecule)	3	-0.142	inactive
CD163 (CD163 molecule)	4	0.137	inactive

Look-ups from above.
For “activity call”, TRPM8 #4 is entered as inactive
For “log2 vehicle/camptothecin viability”, TRPM8 #2 reads -0.145
RPS6KA5 (ribosomal protein S6 kinase A5) #4, activity call = inactive
Under “log2 vehicle/camptothecin viability”, CD163 (CD163 molecule) #1 shows -0.311
PAQR7 (progestin and adipoQ receptor family member 7) #4, log2 vehicle/camptothecin viability → 0.0266
Under “activity call”, FGL1 (fibrinogen like 1) #2 shows inactive

Continued:
target gene	reagent	log2 vehicle/camptothecin viability	activity call
ULBP1 (UL16 binding protein 1)	1	-0.154	inactive
ULBP1 (UL16 binding protein 1)	2	-0.19	inactive
ULBP1 (UL16 binding protein 1)	3	-0.18	inactive
ULBP1 (UL16 binding protein 1)	4	0.126	inactive
AADAC (arylacetamide deacetylase)	1	-0.155	inactive
AADAC (arylacetamide deacetylase)	2	-0.194	inactive
AADAC (arylacetamide deacetylase)	3	-0.216	inactive
LRP5 (LDL receptor related protein 5)	1	-0.185	inactive
LRP5 (LDL receptor related protein 5)	2	0.378	inactive
LRP5 (LDL receptor related protein 5)	3	-0.0625	inactive
LRP5 (LDL receptor related protein 5)	4	0.209	inactive
HDAC9 (histone deacetylase 9)	1	0.0405	inactive
HDAC9 (histone deacetylase 9)	2	0.132	inactive
HDAC9 (histone deacetylase 9)	3	0.882	inactive
PAQR4 (progestin and adipoQ receptor family member 4)	1	-0.0878	inactive
PAQR4 (progestin and adipoQ receptor family member 4)	2	0.353	inactive
PAQR4 (progestin and adipoQ receptor family member 4)	3	-0.271	inactive
PAQR4 (progestin and adipoQ receptor family member 4)	4	-0.38	inactive
TNPO1 (transportin 1)	1	-0.326	inactive
TNPO1 (transportin 1)	2	-0.0757	inactive
TNPO1 (transportin 1)	3	-0.0515	inactive
TNPO1 (transportin 1)	4	0.154	inactive
CINP (cyclin dependent kinase 2 interacting protein)	1	0.0866	inactive
CINP (cyclin dependent kinase 2 interacting protein)	2	0.326	inactive
CINP (cyclin dependent kinase 2 interacting protein)	3	-0.274	inactive
CINP (cyclin dependent kinase 2 interacting protein)	4	-0.367	inactive
EPS8L3 (EPS8 signaling adaptor L3)	1	-0.132	inactive
EPS8L3 (EPS8 signaling adaptor L3)	2	-0.0148	inactive
EPS8L3 (EPS8 signaling adaptor L3)	3	-0.247	inactive
EPS8L3 (EPS8 signaling adaptor L3)	4	0.0803	inactive
DIDO1 (death inducer-obliterator 1)	1	1.28	inactive
DIDO1 (death inducer-obliterator 1)	2	-0.11	inactive
DIDO1 (death inducer-obliterator 1)	3	0.244	inactive
DIDO1 (death inducer-obliterator 1)	4	-0.397	inactive
CRABP2 (cellular retinoic acid binding protein 2)	1	-0.207	inactive
CRABP2 (cellular retinoic acid binding protein 2)	2	-0.489	inactive
CRABP2 (cellular retinoic acid binding protein 2)	3	-0.102	inactive
CRABP2 (cellular retinoic acid binding protein 2)	4	-0.0778	inactive
